# Results as given in the supplement of paper PMC6411743.
# Chains of the proteins cited; added tags and fusions are not shown. Lines headed by an entry give the natural chain unless they say otherwise; changes in a name come on top.
# UniProt P11766: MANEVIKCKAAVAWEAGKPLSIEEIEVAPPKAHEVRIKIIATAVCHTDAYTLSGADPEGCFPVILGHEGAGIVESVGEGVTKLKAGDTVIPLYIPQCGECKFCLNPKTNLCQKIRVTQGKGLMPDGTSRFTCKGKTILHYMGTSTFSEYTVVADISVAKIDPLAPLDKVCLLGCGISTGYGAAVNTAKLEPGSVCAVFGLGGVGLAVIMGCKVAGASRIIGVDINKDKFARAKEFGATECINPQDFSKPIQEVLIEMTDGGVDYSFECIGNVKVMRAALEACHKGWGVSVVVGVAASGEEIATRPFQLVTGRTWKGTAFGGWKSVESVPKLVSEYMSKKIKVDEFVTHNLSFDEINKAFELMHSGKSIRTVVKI
# UniProt P12755: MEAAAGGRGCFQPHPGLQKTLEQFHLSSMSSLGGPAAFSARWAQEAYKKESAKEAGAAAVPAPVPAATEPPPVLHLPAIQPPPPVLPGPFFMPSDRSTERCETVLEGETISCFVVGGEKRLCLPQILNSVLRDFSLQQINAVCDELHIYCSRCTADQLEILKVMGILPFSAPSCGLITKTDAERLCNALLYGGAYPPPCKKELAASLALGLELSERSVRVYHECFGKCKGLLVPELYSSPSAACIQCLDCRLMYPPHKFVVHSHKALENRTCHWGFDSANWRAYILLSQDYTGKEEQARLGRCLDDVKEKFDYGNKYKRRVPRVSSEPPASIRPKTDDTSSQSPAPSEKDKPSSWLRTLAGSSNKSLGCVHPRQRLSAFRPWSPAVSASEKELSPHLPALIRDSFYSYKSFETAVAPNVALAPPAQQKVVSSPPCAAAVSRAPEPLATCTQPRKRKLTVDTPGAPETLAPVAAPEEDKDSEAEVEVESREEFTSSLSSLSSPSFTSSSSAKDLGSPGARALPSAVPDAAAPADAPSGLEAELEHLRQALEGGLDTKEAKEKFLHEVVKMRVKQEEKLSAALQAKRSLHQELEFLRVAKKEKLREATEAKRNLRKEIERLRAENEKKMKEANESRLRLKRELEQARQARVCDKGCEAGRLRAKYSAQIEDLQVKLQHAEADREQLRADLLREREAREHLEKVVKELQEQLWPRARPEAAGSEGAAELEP
# UniProt O95782: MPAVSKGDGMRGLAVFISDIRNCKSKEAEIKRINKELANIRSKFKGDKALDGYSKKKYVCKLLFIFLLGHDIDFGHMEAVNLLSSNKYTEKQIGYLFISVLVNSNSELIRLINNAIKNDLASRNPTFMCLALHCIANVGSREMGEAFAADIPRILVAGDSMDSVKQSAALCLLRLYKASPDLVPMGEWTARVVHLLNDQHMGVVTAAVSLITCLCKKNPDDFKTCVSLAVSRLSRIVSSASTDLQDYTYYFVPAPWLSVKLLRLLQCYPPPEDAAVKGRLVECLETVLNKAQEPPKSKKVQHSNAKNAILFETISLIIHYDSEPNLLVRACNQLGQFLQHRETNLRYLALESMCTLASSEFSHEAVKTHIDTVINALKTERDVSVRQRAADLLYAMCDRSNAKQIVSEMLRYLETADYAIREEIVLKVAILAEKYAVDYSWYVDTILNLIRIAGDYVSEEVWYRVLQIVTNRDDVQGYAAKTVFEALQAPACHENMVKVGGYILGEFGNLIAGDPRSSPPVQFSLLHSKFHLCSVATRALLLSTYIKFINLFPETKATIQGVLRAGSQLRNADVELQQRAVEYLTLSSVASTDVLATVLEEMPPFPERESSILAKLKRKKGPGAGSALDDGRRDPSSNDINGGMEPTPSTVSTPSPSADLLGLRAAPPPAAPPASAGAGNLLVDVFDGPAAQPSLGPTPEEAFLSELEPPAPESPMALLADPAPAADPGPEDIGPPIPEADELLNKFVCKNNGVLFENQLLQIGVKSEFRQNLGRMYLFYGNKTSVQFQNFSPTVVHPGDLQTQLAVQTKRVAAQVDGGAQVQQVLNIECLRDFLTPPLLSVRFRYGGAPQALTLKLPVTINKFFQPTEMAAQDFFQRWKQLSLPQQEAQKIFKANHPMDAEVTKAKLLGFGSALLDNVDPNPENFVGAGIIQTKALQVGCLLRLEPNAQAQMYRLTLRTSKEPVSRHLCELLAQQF
# UniProt O96005: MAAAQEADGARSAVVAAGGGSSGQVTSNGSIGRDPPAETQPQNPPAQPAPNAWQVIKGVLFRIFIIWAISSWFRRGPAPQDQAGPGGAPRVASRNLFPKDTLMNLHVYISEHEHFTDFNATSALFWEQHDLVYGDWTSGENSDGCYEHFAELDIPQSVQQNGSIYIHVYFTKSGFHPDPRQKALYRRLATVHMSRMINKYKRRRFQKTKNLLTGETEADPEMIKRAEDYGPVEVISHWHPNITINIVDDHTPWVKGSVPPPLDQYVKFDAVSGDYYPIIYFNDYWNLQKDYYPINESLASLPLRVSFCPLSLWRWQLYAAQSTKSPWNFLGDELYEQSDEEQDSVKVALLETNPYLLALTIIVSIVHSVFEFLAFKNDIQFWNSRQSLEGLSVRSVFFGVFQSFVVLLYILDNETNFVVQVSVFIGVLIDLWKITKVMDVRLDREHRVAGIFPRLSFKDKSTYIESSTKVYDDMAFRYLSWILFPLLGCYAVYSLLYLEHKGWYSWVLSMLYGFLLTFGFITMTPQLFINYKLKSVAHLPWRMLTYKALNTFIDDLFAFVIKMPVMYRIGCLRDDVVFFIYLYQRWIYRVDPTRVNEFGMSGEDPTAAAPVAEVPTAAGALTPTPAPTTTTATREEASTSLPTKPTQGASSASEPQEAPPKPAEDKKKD
# UniProt P11169: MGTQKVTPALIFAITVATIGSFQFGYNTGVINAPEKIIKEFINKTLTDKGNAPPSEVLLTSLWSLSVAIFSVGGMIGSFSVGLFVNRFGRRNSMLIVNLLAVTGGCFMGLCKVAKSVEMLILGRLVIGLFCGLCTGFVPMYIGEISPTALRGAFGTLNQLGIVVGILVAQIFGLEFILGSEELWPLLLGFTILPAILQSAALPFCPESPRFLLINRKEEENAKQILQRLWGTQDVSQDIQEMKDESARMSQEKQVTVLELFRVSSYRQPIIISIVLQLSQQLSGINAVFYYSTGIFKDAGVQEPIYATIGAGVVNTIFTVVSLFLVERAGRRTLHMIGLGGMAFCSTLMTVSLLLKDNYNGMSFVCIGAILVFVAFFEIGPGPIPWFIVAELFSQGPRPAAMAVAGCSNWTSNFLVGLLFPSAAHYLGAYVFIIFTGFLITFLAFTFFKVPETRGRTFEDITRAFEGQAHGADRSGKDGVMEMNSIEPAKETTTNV
# UniProt P13196: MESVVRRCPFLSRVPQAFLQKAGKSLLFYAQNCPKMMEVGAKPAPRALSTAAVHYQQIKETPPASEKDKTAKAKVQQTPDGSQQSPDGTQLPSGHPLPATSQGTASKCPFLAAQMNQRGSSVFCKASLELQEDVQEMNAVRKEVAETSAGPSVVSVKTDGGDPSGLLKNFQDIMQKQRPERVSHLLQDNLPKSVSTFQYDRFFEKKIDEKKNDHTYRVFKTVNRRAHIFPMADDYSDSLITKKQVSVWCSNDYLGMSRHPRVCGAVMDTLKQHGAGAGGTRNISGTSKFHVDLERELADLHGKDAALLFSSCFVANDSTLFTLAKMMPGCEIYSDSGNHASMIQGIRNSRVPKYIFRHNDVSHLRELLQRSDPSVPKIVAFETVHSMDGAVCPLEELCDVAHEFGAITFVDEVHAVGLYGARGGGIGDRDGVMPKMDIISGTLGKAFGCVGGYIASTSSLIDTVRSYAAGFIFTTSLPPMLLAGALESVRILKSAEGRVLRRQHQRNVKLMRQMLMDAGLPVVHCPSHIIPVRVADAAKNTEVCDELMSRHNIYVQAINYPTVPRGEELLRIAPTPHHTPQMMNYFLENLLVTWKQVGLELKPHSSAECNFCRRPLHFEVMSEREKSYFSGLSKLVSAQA
# UniProt P09382, whole entry: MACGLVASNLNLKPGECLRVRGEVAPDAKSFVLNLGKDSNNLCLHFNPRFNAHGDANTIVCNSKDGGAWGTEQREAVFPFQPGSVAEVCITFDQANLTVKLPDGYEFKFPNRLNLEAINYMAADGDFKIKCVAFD
# UniProt P14859: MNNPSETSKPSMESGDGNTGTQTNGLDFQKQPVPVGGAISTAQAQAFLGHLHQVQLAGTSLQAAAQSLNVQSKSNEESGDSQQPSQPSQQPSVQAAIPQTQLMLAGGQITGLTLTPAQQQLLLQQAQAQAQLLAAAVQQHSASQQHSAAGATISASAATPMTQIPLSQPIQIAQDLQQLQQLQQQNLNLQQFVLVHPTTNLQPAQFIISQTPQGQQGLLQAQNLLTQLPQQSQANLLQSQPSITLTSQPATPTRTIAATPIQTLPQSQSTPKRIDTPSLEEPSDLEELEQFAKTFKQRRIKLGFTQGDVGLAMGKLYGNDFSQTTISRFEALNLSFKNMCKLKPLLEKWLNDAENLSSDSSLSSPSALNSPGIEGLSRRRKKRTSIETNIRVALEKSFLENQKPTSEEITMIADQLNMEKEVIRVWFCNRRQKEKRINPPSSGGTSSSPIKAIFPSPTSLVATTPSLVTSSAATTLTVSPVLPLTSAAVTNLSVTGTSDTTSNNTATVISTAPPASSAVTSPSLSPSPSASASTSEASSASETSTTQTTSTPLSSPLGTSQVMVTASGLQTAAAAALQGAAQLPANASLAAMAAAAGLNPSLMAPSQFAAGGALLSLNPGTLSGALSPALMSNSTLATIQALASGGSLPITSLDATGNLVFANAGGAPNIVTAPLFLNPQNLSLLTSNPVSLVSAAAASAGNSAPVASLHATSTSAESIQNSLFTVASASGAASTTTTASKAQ
# UniProt P06753, whole entry: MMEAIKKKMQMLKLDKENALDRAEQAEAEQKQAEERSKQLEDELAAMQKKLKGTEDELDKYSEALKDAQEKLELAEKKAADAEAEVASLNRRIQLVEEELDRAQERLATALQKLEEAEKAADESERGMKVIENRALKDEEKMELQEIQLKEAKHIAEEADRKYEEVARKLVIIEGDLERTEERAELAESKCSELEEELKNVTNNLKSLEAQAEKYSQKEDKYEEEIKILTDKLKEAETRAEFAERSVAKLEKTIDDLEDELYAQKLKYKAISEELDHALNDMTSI
# UniProt O95905: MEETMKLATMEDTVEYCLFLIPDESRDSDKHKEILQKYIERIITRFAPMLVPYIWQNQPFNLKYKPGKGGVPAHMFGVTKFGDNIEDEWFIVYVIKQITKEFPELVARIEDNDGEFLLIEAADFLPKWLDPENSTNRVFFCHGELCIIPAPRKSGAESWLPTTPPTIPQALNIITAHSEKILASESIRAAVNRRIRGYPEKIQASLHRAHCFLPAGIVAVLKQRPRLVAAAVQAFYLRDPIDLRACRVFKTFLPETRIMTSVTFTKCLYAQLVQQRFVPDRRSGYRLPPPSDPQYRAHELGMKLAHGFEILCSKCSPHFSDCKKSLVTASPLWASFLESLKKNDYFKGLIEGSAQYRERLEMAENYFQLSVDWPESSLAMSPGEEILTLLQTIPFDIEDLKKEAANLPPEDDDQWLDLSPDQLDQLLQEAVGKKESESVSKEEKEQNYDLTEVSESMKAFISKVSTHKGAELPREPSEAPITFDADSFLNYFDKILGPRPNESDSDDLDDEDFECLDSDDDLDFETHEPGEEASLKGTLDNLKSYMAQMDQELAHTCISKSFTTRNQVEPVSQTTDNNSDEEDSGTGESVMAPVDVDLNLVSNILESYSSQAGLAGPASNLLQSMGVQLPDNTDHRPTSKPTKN
# UniProt P06730, whole entry: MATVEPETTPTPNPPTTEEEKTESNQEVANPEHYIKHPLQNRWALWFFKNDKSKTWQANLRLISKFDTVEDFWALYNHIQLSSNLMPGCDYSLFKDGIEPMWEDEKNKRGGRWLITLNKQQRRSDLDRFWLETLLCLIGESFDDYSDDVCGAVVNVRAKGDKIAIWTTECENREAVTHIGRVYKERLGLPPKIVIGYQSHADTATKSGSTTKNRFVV
# UniProt P11310: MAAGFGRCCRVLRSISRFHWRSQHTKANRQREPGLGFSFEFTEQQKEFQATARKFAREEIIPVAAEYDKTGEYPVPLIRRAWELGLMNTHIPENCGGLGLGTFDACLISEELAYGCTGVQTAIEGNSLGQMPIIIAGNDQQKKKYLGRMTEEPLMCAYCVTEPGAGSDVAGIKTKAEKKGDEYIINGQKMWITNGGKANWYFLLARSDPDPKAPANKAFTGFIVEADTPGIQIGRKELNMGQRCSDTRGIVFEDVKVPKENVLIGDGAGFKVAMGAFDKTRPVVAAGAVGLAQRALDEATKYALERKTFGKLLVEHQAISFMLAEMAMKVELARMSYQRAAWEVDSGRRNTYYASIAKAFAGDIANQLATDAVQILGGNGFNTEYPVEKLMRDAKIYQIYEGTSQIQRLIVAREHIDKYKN
# UniProt P09564: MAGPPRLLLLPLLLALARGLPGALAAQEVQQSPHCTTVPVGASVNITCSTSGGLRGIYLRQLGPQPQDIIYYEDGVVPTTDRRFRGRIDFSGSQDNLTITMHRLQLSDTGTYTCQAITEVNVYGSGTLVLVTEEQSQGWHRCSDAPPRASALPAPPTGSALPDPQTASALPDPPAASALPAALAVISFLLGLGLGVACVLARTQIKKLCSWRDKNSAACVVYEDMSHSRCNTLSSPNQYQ
# ± gives the standard deviation of the averaged measurements. This is a selection; strong and weak results do not stand in their true shares. Most entries show no effect beyond the scatter of the controls.
# Compound: Nc1ncnc2c1ncn2[C@@H]1O[C@H](COP(=O)(O)OP(=O)(O)NP(=O)(O)O)[C@@H](O)[C@H]1O [adenylyl imidodiphosphate]
# Experiment: NP40-soluble protein abundance relative to vehicle (solubility fold change) (ratio); higher = more soluble protein in presence of AMP-PNP
# Procedure, shortened: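 Eight concentrations, 0.1 to 10 mM, were tested on Jurkat crude lysate for 10 min at room temperature and then 3 min at 37 °C, in three independent experiments. The lysate was solubilised with 0.8% NP40 and benzonase, ultracentrifuged, and the supernatant TMT-labelled for LC-MS/MS. Each value is the fold change against the detergent-processed vehicle in its own replicate, from vsn-normalised intensities.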
Target,NP40-soluble protein abundance (concentration: 0.1mM),NP40-soluble protein abundance (concentration: 0.5mM)
ADH5 (UniProt P11766),1 ± 0.032,0.998 ± 0.042
SKI (UniProt P12755),0.9961 ± 0.0028,0.9979 ± 0.0082
UniProt O95782 and related entries,1.05 ± 0.021,1.04 ± 0.039
ZBED1 (UniProt O96006),0.98 ± 0.039,0.999 ± 0.039
UniProt O96005 and related entries,1.01 ± 0.085,1.02 ± 0.074
SLC2A3 (UniProt P11169),1.01 ± 0.021,0.984 ± 0.014
ALAS1 (UniProt P13196),0.992 ± 0.0094,1 ± 0.036
UniProt P01112,1.046 ± 0.0077,1.05 ± 0.033
UniProt P14618 and related entries,1.05 ± 0.072,0.929 ± 0.11
UniProt P12931 and related entries,1.03 ± 0.051,1.02 ± 0.054
ETS1 (UniProt P14921),0.98 ± 0.031,0.989 ± 0.027
LGALS1 (UniProt P09382),0.995 ± 0.015,1.03 ± 0.028
UniProt P14859 and related entries,0.9958 ± 0.0059,1.03 ± 0.037
UniProt P06753-2|P06753-3|P06753-5|P06753-6|J3KN67,1 ± 0.094,1.13 ± 0.2
UniProt O95905 and related entries,1.016 ± 0.0047,1 ± 0.036
UniProt O95831 and related entries,1.011 ± 0.0097,0.98 ± 0.03
UniProt P06730 and related entries,1.08 ± 0.051,1.01 ± 0.031
UniProt P11310 and related entries,0.991 ± 0.043,1.04 ± 0.076
UniProt P09564,1.02 ± 0.033,1.06 ± 0.06
UniProt P11388 and related entries,1.51 ± 0.028,1.65 ± 0.051
POLR3D (UniProt P05423),1 ± 0.05,0.9844 ± 0.0057

# Some values from the entries so far:
# Under NP40-soluble protein abundance (concentration: 0.5mM), UniProt P12931 and related entries is entered as 1.02 ± 0.054
# Under NP40-soluble protein abundance (concentration: 0.5mM), UniProt P11388 and related entries is entered as 1.65 ± 0.051
